{"source": "the supplement of paper PMC6119338", "note": "± gives the standard deviation of the averaged measurements. Some of the results follow. Single values are uncertain, as repeats are few or missing.", "data": [{"test_system": "Plasmodium berghei sporozoites", "experiment": "residual sporozoite gliding motility relative to DMSO control; higher = less inhibition of motility", "details": "10 µM; incubation time 30 min", "units": {"residual sporozoite gliding motility": "%"}, "values": [{"smiles": "COc1ccc(CCn2c(=N)c(C(=O)NCc3cccnc3)cc3c(=O)n4cccc(C)c4nc32)cc1", "residual sporozoite gliding motility": "> 50"}, {"smiles": "CCCCNc1nc(NC(C)(C)C)nc(NC(C)(C)C)n1", "residual sporozoite gliding motility": "> 50"}, {"smiles": "CCOc1ccccc1NC(=O)CN1CCN(C(=O)c2ccco2)CC1", "residual sporozoite gliding motility": "> 50"}, {"smiles": "CCOC(=O)c1cnc2ccc(CC)cc2c1O", "residual sporozoite gliding motility": "> 50"}, {"smiles": "COc1ccc(C2c3ccc4ccccc4c3Oc3ncn(CCCN(C)C)c(=N)c32)cc1", "note": "(stereo unspecified)", "residual sporozoite gliding motility": "> 50"}, {"smiles": "Cc1ccc(Nc2nc(-c3ccccn3)cs2)cc1", "residual sporozoite gliding motility": "> 50"}, {"smiles": "Cc1ccc(N2C(=O)C3C(C2=O)C2(c4ccccc4)C(=O)C3(c3ccccc3)C(c3ccccc3)=C2c2ccccc2)cc1", "note": "(stereo unspecified)", "residual sporozoite gliding motility": "> 50"}, {"smiles": "CCOC(=O)c1c[nH]c2c(CC)cccc2c1=O", "residual sporozoite gliding motility": "> 50"}, {"smiles": "Cc1ccc(CSCc2ccc(C(=O)NC3CC3)o2)cc1", "residual sporozoite gliding motility": "> 50"}, {"smiles": "O=C(Nc1ccc(Cl)c(Cl)c1)Nc1ccc(Cl)c(Cl)c1", "residual sporozoite gliding motility": "19.7 ± 1.5"}, {"smiles": "Cc1ccccc1OCCSc1nc2ccc(NC(=O)c3cccs3)cc2s1", "residual sporozoite gliding motility": "> 50"}, {"smiles": "OC(CNCC1CCCO1)Cn1c2ccc(Cl)cc2c2cc(Cl)ccc21", "note": "(stereo unspecified)", "residual sporozoite gliding motility": "77.3 ± 17"}, {"smiles": "COc1cc2c(cc1OC)C1=NNC(=O)C1=NC(C)(C)C2", "residual sporozoite gliding motility": "> 50"}, {"smiles": "OC(CNC1CCCCC1)Cn1c2ccc(I)cc2c2cc(I)ccc21", "note": "(stereo unspecified)", "residual sporozoite gliding motility": "> 50"}, {"smiles": "Cc1cccc(N2C(=O)C3C(C2=O)C2(c4ccccc4)C(=O)C3(c3ccccc3)C(c3ccc4c(c3)OCO4)=C2c2ccc3c(c2)OCO3)c1", "note": "(stereo unspecified)", "residual sporozoite gliding motility": "> 50"}, {"smiles": "CCOc1ccc(CN2CCN(CC(O)COc3ccc(OCC(O)CN4CCN(Cc5ccc(OCC)cc5)CC4)cc3)CC2)cc1", "note": "(stereo unspecified)", "residual sporozoite gliding motility": "> 50"}, {"smiles": "Cc1ccc2nc(C)cc(Nc3cccc(C(F)(F)F)c3)c2c1", "residual sporozoite gliding motility": "> 50"}, {"smiles": "CCn1c2c(c(=N)c3c1CCC3)CCCC2", "residual sporozoite gliding motility": "> 50"}, {"smiles": "Oc1ccc(-c2nc(-c3ccc4oc5ccc(-c6[nH]c(-c7ccc(O)cc7)nc6-c6ccccc6)cc5c4c3)c(-c3ccccc3)[nH]2)cc1", "residual sporozoite gliding motility": "> 50"}, {"smiles": "Cc1cccc(-n2ncc3c(O)nc(-n4nc(C)cc4NC(=O)c4cc5ccccc5o4)nc32)c1", "residual sporozoite gliding motility": "> 50"}, {"smiles": "CN(C)c1ccc(-c2nc3cc(N)ccc3[nH]2)cc1", "residual sporozoite gliding motility": "> 50"}, {"smiles": "CCN(CC)CCCNc1nc(-c2ccc(Cl)cc2)nc2ccccc12", "residual sporozoite gliding motility": "> 50"}, {"smiles": "COc1cc(OC)c(N(C)C(=O)c2cc3c(s2)-c2ccccc2S(=O)(=O)C3)cc1Cl", "residual sporozoite gliding motility": "> 50"}, {"smiles": "CCOc1cc2c(cc1OCC)C(c1cc(OC)c(O)cc1Cl)NCC2", "note": "(stereo unspecified)", "residual sporozoite gliding motility": "> 50"}, {"smiles": "CCCc1c(C)nc2ccccc2c1O", "residual sporozoite gliding motility": "> 50"}, {"smiles": "COc1ccc(C2c3ccc4ccccc4c3Oc3ncn(CCCn4ccnc4)c(=N)c32)cc1OC", "note": "(stereo unspecified)", "residual sporozoite gliding motility": "> 50"}, {"smiles": "Cc1ccc(F)cc1NC(=O)c1cc(Cl)ccc1Nc1ccccc1", "residual sporozoite gliding motility": "> 50"}, {"smiles": "COC(=O)c1ccc(C2C3=C(O)CC(c4ccc(F)cc4)CC3=Nc3ccccc3N2C(=O)c2ccccc2)cc1", "note": "(stereo unspecified)", "residual sporozoite gliding motility": "> 50"}, {"smiles": "Cc1cc(C)c2nc(N3CCC(C(=O)NCCCN4CCC(N5CCCCC5)CC4)CC3)sc2c1", "residual sporozoite gliding motility": "> 50"}, {"smiles": "O=C(NCC(c1ccsc1)N1CCCCCC1)c1ccc(C(F)(F)F)cc1", "note": "(stereo unspecified)", "residual sporozoite gliding motility": "> 50"}, {"smiles": "CCOc1ccc2nc(C)cc(Nc3ccc(N(C)C)cc3)c2c1", "residual sporozoite gliding motility": "> 50"}, {"smiles": "CC1CC2=C(CC1CNCCCN(C)C)C(C)(C)CCC2", "note": "(stereo unspecified)", "residual sporozoite gliding motility": "> 50"}, {"smiles": "CCOC(=O)c1c(C)n(-c2ccc(Cl)cc2)c2ccc(OC(=O)C=Cc3ccccc3)cc12", "residual sporozoite gliding motility": "> 50"}, {"smiles": "COc1cccc(C2(C)Nc3ccccc3-c3nc4ccccc4n32)c1", "note": "(stereo unspecified)", "residual sporozoite gliding motility": "> 50"}, {"smiles": "COc1ccc(Br)cc1C1Nc2ccc3ccccc3c2C2=C1C(=O)CC(c1ccccc1)C2", "note": "(stereo unspecified)", "residual sporozoite gliding motility": "> 50"}, {"smiles": "CC(C)c1ccc(CNCC(O)c2ccccc2)cc1", "note": "(stereo unspecified)", "residual sporozoite gliding motility": "> 50"}]}]}
